Data reported in patent US20060057652A1.
Results are given in words; binding and its absence hold for the method and conditions named. In cells and extracts the contact can be indirect. Some binding calls cover weakened binding; strength is not graded here. Where a sequence is shown, tags or fusion partners need not be part of it.

Target: T1, FLAG-tagged wild type Apoptin expressed from adenovirus Ad-Apwt (Chicken anemia virus) (UniProt Q99152)
T1 sequence: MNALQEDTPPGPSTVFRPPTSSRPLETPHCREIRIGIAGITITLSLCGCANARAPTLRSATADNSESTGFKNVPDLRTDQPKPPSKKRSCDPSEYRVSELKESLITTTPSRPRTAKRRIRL
Assay: co-immunoprecipitation on anti-FLAG beads from H1299 cells (multimerization)

B1: GFP-Apwt (protein)
chain: MNALQEDTPPGPSTVFRPPTSSRPLETPHCREIRIGIAGITITLSLCGCANARAPTLRSATADNSESTGFKNVPDLRTDQPKPPSKKRSCDPSEYRVSELKESLITTTPSRPRTAKRRIRL
modifications: N-terminal GFP fusion, GFP left out
With B1 the binding was “binds”.
